Test results reported in patent US8889408B2, “Factor taking part in transcription control” (Sony Corporation, priority 2002, dated 2014).
No constants are given. Whether binding was seen depends on the method and setting. In cells and extracts the contact can be indirect. Some binding calls cover weakened binding; strength is not graded here. Tags and fused reporters may be left off the sequences shown. Each block holds one binder with its values, some of them ahead of it.

Sequences of proteins named here, by UniProt entry; tags and fusion partners are left off.
UniProt O15379: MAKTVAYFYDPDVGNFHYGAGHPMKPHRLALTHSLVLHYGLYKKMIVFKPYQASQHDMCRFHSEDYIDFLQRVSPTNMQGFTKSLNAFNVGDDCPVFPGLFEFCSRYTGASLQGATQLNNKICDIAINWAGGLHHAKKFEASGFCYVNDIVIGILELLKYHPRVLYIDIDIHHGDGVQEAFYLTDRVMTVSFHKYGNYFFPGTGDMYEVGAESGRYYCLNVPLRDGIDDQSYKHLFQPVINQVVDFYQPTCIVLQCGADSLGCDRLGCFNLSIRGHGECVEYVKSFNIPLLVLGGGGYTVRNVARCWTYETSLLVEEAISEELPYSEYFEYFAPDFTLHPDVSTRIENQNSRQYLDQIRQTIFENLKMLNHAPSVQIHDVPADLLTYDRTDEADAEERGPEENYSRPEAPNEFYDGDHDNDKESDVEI
UniProt P56524: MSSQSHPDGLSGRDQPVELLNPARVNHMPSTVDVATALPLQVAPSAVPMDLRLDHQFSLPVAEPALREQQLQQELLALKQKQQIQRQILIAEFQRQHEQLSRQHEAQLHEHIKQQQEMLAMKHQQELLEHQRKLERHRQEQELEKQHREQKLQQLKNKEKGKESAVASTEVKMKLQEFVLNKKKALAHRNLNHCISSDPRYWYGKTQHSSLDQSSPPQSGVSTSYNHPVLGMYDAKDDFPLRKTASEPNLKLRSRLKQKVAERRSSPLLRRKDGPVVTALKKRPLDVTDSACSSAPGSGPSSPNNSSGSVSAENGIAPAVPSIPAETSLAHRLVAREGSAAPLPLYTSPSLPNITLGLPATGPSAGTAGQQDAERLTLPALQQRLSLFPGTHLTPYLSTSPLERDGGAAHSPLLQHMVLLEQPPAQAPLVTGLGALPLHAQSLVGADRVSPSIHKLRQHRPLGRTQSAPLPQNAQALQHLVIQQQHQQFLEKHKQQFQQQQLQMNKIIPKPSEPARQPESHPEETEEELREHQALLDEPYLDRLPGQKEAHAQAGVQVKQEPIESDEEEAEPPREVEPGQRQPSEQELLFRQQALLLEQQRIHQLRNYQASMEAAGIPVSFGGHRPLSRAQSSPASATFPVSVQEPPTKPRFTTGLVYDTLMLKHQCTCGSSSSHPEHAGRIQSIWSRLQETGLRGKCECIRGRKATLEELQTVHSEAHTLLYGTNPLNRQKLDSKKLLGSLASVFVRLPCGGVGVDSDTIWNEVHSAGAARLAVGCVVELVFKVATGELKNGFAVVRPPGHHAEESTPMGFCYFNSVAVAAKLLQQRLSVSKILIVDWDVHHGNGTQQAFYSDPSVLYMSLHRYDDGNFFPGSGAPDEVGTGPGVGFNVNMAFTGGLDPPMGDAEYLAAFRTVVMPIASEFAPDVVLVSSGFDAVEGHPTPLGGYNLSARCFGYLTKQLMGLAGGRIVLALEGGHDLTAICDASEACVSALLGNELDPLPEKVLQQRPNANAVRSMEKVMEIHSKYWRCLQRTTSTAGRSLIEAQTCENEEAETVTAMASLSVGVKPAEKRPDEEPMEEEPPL
UniProt Q9UBN7: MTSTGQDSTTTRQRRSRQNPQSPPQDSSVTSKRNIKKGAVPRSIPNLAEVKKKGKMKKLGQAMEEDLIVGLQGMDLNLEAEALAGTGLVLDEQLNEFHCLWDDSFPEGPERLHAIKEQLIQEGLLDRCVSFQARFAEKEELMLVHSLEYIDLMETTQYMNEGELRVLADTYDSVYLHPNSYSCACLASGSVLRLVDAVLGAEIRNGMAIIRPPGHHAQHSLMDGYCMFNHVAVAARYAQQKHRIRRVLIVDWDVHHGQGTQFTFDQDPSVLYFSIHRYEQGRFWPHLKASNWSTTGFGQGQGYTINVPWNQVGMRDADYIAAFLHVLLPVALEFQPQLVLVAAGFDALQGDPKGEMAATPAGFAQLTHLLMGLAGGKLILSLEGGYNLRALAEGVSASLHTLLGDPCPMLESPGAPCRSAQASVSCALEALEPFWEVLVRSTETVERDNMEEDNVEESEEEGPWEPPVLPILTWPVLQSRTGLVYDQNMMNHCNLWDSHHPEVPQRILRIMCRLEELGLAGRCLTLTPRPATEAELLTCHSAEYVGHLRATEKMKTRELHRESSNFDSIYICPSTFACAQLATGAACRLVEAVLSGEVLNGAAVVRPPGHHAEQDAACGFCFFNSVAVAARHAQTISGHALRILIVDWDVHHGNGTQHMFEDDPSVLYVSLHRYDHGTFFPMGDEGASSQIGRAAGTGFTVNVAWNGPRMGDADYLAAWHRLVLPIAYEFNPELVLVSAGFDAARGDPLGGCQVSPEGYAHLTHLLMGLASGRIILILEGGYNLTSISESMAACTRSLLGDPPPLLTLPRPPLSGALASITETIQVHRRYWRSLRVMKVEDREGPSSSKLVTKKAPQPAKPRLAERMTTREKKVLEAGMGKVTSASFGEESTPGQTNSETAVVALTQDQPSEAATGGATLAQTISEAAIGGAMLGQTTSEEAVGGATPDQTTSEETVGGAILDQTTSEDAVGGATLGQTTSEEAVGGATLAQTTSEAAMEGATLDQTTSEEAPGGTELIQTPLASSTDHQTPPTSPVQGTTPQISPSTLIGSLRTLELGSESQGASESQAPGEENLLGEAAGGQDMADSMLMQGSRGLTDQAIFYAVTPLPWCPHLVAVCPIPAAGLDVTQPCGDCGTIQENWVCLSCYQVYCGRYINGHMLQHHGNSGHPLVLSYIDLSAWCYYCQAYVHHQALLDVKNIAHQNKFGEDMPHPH
UniProt Q13547: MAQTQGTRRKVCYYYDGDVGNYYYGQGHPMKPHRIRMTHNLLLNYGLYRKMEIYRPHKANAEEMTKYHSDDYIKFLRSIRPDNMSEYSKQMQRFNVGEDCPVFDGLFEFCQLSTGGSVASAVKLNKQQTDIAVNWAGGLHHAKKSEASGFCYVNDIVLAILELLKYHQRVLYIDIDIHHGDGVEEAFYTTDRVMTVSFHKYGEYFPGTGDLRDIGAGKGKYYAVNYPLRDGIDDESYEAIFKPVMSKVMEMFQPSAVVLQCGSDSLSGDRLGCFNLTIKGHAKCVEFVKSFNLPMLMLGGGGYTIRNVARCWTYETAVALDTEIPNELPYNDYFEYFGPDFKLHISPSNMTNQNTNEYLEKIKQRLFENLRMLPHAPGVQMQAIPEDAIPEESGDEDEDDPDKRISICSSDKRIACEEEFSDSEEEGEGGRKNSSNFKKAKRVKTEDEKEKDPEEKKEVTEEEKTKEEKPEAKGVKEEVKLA

Experiments:
Flag-Skip fused protein [1] = molecular target: T1, Flag-Skip fused protein (UniProt Q13573); assay: co-immunoprecipitation from 293 cells, anti-Flag IP, anti-GFP immunoblot
T1 sequence (looked up): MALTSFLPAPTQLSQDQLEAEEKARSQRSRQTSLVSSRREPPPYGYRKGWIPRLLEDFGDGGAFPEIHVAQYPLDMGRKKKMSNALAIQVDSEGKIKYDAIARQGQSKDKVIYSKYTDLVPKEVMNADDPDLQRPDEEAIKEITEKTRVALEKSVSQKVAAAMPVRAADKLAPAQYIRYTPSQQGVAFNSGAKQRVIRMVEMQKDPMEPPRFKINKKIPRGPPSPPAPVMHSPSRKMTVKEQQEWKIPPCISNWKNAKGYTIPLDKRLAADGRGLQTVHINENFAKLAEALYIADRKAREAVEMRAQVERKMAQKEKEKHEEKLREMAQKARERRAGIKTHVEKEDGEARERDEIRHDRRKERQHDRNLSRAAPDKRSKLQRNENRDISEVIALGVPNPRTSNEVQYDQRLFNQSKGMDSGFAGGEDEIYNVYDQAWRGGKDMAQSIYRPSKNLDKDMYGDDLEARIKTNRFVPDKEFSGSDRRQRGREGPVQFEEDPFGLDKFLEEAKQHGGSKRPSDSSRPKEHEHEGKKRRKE

Flag-Skip fused protein [2] = molecular target: T1, Flag-Skip fused protein; assay: co-immunoprecipitation from HEK293 cells, anti-Flag IP, anti-GFP immunoblot
Flag-HDAC3 [3] = molecular target: Flag-HDAC3 (UniProt O15379); assay: co-immunoprecipitation from 293 cells, anti-Flag IP, anti-GFP immunoblot (lane 3)
Flag-HDAC4 [4] = molecular target: Flag-HDAC4 (UniProt P56524); assay: co-immunoprecipitation from 293 cells, anti-FLAG IP (figure legend, lane 4)
Flag-HDAC6 [5] = molecular target: Flag-HDAC6 (UniProt Q9UBN7); assay: co-immunoprecipitation from 293 cells, anti-FLAG IP (figure legend, lane 5)
Flag-HDAC6 [6] = molecular target: Flag-HDAC6 (UniProt Q9UBN7); assay: co-immunoprecipitation from 293 cells, anti-Flag IP, anti-GFP immunoblot (lane 5)
Flag-HDAC1 [7] = molecular target: Flag-HDAC1 (UniProt Q13547); assay: co-immunoprecipitation from 293 cells, anti-Flag IP, anti-GFP immunoblot (lane 1)
Flag-HDAC3 [8] = molecular target: Flag-HDAC3 (UniProt O15379); assay: co-immunoprecipitation from 293 cells, anti-FLAG IP (figure legend, lane 3)
Flag-HDAC1 [9] = molecular target: Flag-HDAC1 (UniProt Q13547); assay: co-immunoprecipitation from 293 cells, anti-FLAG IP (figure legend, lane 1)
Flag-HDAC4 [10] = molecular target: Flag-HDAC4 (UniProt P56524); assay: co-immunoprecipitation from 293 cells, anti-Flag IP, anti-GFP immunoblot (lane 4)
[11] = molecular target: HDAC1 (GST pulldown, data not shown) (UniProt Q13547); assay: GST pulldown (data not shown)
[12] = molecular target: in vitro translated HDAC3 (UniProt O15379); assay: GST pulldown (figure legend)
[13] = molecular target: in vitro translated HDAC3 (UniProt O15379); assay: GST pulldown of ^35S-labelled in vitro translated HDAC3, autoradiography
Flag-Skip fused protein [14] = molecular target: T1, Flag-Skip fused protein; assay: co-immunoprecipitation from 293 cells, anti-Flag IP, anti-HDART immunoblot

binding (Flag-Skip fused protein [1]): binds
B1: GFP-N4TPR (N4TPR tagged with GFP) (protein, not shown: large carriers; small tags and cut ends)
chain: MVVMARLSRPERPDLVFEEEDLPYEEEIMRNQFSVKCWLRYIEFKQGAPKPRLNQLYERALKLLPCSYKLWYRYLKARRAQVKHRCVTDPAYEDVNNCHERAFVFMHKMPRLWLDYCQFLMDQGRVTHTRRTFDRALRALPITQHSRIWPLYLRFLRSHPLPETAVRGYRRFLKLSPES

binding (Flag-Skip fused protein [2]): binds | binding (Flag-HDAC3 [3]): binds | binding (Flag-HDAC4 [4]): binds | binding (Flag-HDAC6 [5]): binds | binding (Flag-HDAC6 [6]): binds | binding (Flag-HDAC1 [7]): binds | binding (Flag-HDAC3 [8]): binds | binding (Flag-HDAC1 [9]): binds | binding (Flag-HDAC4 [10]): binds
B2: GFP-HDART fused protein (protein, not shown: large carriers; small tags and cut ends)
chain: MVVMARLSRPERPDLVFEEEDLPYEEEIMRNQFSVKCWLRYIEFKQGAPKPRLNQLYERALKLLPCSYKLWYRYLKARRAQVKHRCVTDPAYEDVNNCHERAFVFMHKMPRLWLDYCQFLMDQGRVTHTRRTFDRALRALPITQHSRIWPLYLRFLRSHPLPETAVRGYRRFLKLSPESAEEYIEYLKSSDRLDEAAQRLATVVNDERFVSKAGKSNYQLWHELCDLISQNPDKVQSLNVDAIIRGGLTRFTDQLGKLWCSLADYYIRSGHFEKARDVYEEAIRTVMTVRDFTQVFDSYAQFEESMIAAKMETASELGREEEDDVDLELRLARFEQLISRRPLLLNSVLLRQNPHHVHEWHKRVALHQGRPREIINTYTEAVQTVDPFKATGKPHTLWVAFAKFYEDNGQLDDARVILEKATKVNFKQVDDLASVWCQCGELELRHENYDEALRLLRKATALPARRAEYFDGSEPVQNRVYKSLKVWSMLADLEESLGTFQSTKAVYDRILDLRIATPQIVINYAMFLEEHKYFEESFKAYERGISLFKWPNVSDIWSTYLTKFIARYGGRKLERARDLFEQALDGCPPKYAKTLYLLYAQLEEEWGLARHAMAVYERATRAVEPAQQYDMFNIYIKRAAEIYGVTHTRGIYQKAIEVLSDEHAREMCLRFADMECKLGEIDRARAIYSFCSQICDPRTTGAFWQTWKDFEVRHGNEDTIKEMLRIRRSVQATYNTQVNFMASQMLKVSGSATGTVSDLAPGQSGMDDMKLLEQRAEQLAAEAERDQPLRAQSKILFVRSDASREELAELAQQVNPEEIQLGEDEDEDEMDLEPNEVRLEQQSVPAAVFGSLKED

binding [11]: binds | binding [12]: binds | binding [13]: binds
B3: GST-HDART fused protein (protein, not shown: a dimerising Fc or GST)
chain: MVVMARLSRPERPDLVFEEEDLPYEEEIMRNQFSVKCWLRYIEFKQGAPKPRLNQLYERALKLLPCSYKLWYRYLKARRAQVKHRCVTDPAYEDVNNCHERAFVFMHKMPRLWLDYCQFLMDQGRVTHTRRTFDRALRALPITQHSRIWPLYLRFLRSHPLPETAVRGYRRFLKLSPESAEEYIEYLKSSDRLDEAAQRLATVVNDERFVSKAGKSNYQLWHELCDLISQNPDKVQSLNVDAIIRGGLTRFTDQLGKLWCSLADYYIRSGHFEKARDVYEEAIRTVMTVRDFTQVFDSYAQFEESMIAAKMETASELGREEEDDVDLELRLARFEQLISRRPLLLNSVLLRQNPHHVHEWHKRVALHQGRPREIINTYTEAVQTVDPFKATGKPHTLWVAFAKFYEDNGQLDDARVILEKATKVNFKQVDDLASVWCQCGELELRHENYDEALRLLRKATALPARRAEYFDGSEPVQNRVYKSLKVWSMLADLEESLGTFQSTKAVYDRILDLRIATPQIVINYAMFLEEHKYFEESFKAYERGISLFKWPNVSDIWSTYLTKFIARYGGRKLERARDLFEQALDGCPPKYAKTLYLLYAQLEEEWGLARHAMAVYERATRAVEPAQQYDMFNIYIKRAAEIYGVTHTRGIYQKAIEVLSDEHAREMCLRFADMECKLGEIDRARAIYSFCSQICDPRTTGAFWQTWKDFEVRHGNEDTIKEMLRIRRSVQATYNTQVNFMASQMLKVSGSATGTVSDLAPGQSGMDDMKLLEQRAEQLAAEAERDQPLRAQSKILFVRSDASREELAELAQQVNPEEIQLGEDEDEDEMDLEPNEVRLEQQSVPAAVFGSLKED

binding (Flag-Skip fused protein [14]): binds
B4: endogenous HDART protein (protein)
chain: MVVMARLSRPERPDLVFEEEDLPYEEEIMRNQFSVKCWLRYIEFKQGAPKPRLNQLYERALKLLPCSYKLWYRYLKARRAQVKHRCVTDPAYEDVNNCHERAFVFMHKMPRLWLDYCQFLMDQGRVTHTRRTFDRALRALPITQHSRIWPLYLRFLRSHPLPETAVRGYRRFLKLSPESAEEYIEYLKSSDRLDEAAQRLATVVNDERFVSKAGKSNYQLWHELCDLISQNPDKVQSLNVDAIIRGGLTRFTDQLGKLWCSLADYYIRSGHFEKARDVYEEAIRTVMTVRDFTQVFDSYAQFEESMIAAKMETASELGREEEDDVDLELRLARFEQLISRRPLLLNSVLLRQNPHHVHEWHKRVALHQGRPREIINTYTEAVQTVDPFKATGKPHTLWVAFAKFYEDNGQLDDARVILEKATKVNFKQVDDLASVWCQCGELELRHENYDEALRLLRKATALPARRAEYFDGSEPVQNRVYKSLKVWSMLADLEESLGTFQSTKAVYDRILDLRIATPQIVINYAMFLEEHKYFEESFKAYERGISLFKWPNVSDIWSTYLTKFIARYGGRKLERARDLFEQALDGCPPKYAKTLYLLYAQLEEEWGLARHAMAVYERATRAVEPAQQYDMFNIYIKRAAEIYGVTHTRGIYQKAIEVLSDEHAREMCLRFADMECKLGEIDRARAIYSFCSQICDPRTTGAFWQTWKDFEVRHGNEDTIKEMLRIRRSVQATYNTQVNFMASQMLKVSGSATGTVSDLAPGQSGMDDMKLLEQRAEQLAAEAERDQPLRAQSKILFVRSDASREELAELAQQVNPEEIQLGEDEDEDEMDLEPNEVRLEQQSVPAAVFGSLKED
